Source: PubChem BioAssay AID1053208 (Peter MacCallum Cancer Centre, 2014)

- Aim: 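Find knock-downs that sensitise mouse osteosarcoma cells to doxorubicin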 (primary screen)
- Cell system: mouse osteosarcoma cells, early-passage culture from an engineered mouse model of fibroblastic bone tumour
- Reagents: siRNA pool against mouse genes, 40 nM
- Duration: about 120 h (48 h before drug, then 72 h with drug)
- Conditions: doxorubicin 100 nM for 72 h, roughly 30-40% inhibitory dose
- Measured: 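Luminescent ATP signal taken as viability with or without 100 nM doxorubicin for 72 h; mean of two wells set against non-targeting siRNA and turned into robust z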
- Reading the numbers: viability z-score with doxorubicin and doxorubicin viability vs non-targeting: higher = more viable cells under doxorubicin; viability z-score without drug: higher = more viable cells with knock-down alone; z-score of drug to no-drug ratio: higher = less drug sensitisation by knock-down
- Call rule: 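Called active if knock-down leaves viability unchanged without drug (z within -2 to 2) but lowers it with doxorubicin (z at or under -2)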
This is one part, drawn at random, of about 17,000 deposited reagents. 788 of them (4.7%) were called active. 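Calls rest on z-score classes alone; an extra cut-off of viability at most 70% of control was not applied to them.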 Reagents against one gene are numbered here.

| target gene | reagent | combined z-score class | viability z-score with doxorubicin | viability z-score without drug | z-score of drug to no-drug ratio | doxorubicin viability vs non-targeting | Call |
| --- | --- | --- | --- | --- | --- | --- | --- |
| Snai2 (snail family zinc finger 2) | 1 | low cell count with doxorubicin only | -2.02 | -1.18 | -1.35 | 0.76 | active |
| Thsd4 (thrombospondin, type I, domain containing 4) | 1 | no change with or without drug | 1.12 | 0.51 | 0.9 | 1.04 | inactive |
| Pibf1 (progesterone immunomodulatory binding factor 1) | 1 | no change with or without drug | 1.8 | 1.18 | 1.12 | 1.1 | inactive |
| Slc1a2 | 1 | no change with or without drug | -1.57 | -1.35 | -0.67 | 0.8 | inactive |
| Or1n1 (olfactory receptor family 1 subfamily N member 1) | 1 | no change with or without drug | -0.34 | 0.84 | -0.79 | 0.91 | inactive |
| Rspry1 (ring finger and SPRY domain containing 1) | 1 | no change with or without drug | 0.22 | 0 | 0.34 | 0.96 | inactive |
| Zfp874a (zinc finger protein 874a) | 1 | no change with or without drug | -0.22 | 0.51 | -0.45 | 0.92 | inactive |
| Apol9b (apolipoprotein L 9b) | 1 | no change with or without drug | -0.45 | 1.69 | -1.35 | 0.9 | inactive |
| Spag17os (sperm associated antigen 17, opposite strand) | 1 | no change with or without drug | 1.24 | -1.35 | 2.59 | 1.05 | inactive |
| Afg3l1 (AFG3-like AAA ATPase 1) | 1 | no change with or without drug | -0.34 | -0.17 | -0.11 | 0.91 | inactive |
| Rad52 (RAD52 homolog, DNA repair protein) | 1 | no change with or without drug | 0.9 | -0.34 | 1.35 | 1.02 | inactive |
| Eif4e3 (eukaryotic translation initiation factor 4E member 3) | 1 | no change with or without drug | 0.22 | 0.51 | 0 | 0.96 | inactive |
| Or2h1 (olfactory receptor family 2 subfamily H member 1) | 1 | no change with or without drug | -0.11 | -0.67 | 0.45 | 0.93 | inactive |
| Capza1b (capping actin protein of muscle Z-line subunit alpha 1B) | 1 | no change with or without drug | 0.34 | -1.85 | 1.91 | 0.97 | inactive |
| Maged2 (MAGE family member D2) | 1 | no change with or without drug | -0.45 | -1.52 | 0.79 | 0.9 | inactive |
| Spata2 (spermatogenesis associated 2) | 1 | no change with or without drug | -0.45 | 1.01 | -1.01 | 0.9 | inactive |
| Klra9 (killer cell lectin-like receptor subfamily A, member 9) | 1 | no change with or without drug | -0.22 | 1.52 | -1.12 | 0.92 | inactive |
| A730089K16Rik (RIKEN cDNA A730089K16 gene) | 1 | no change with or without drug | -1.12 | -1.18 | -0.34 | 0.84 | inactive |

7 entries from above, showing only “doxorubicin viability vs non-targeting”:
Spag17os (sperm associated antigen 17, opposite strand)	1.05
Afg3l1 (AFG3-like AAA ATPase 1)	0.91
Rad52 (RAD52 homolog, DNA repair protein)	1.02
Eif4e3 (eukaryotic translation initiation factor 4E member 3)	0.96
Or2h1 (olfactory receptor family 2 subfamily H member 1)	0.93
Capza1b (capping actin protein of muscle Z-line subunit alpha 1B)	0.97
Maged2 (MAGE family member D2)	0.9

Next results follow:
| target gene | reagent | combined z-score class | viability z-score with doxorubicin | viability z-score without drug | z-score of drug to no-drug ratio | doxorubicin viability vs non-targeting | Call |
| --- | --- | --- | --- | --- | --- | --- | --- |
| Eif2ak4 (eukaryotic translation initiation factor 2 alpha kinase 4) | 1 | low cell count with doxorubicin only | -2.25 | -0.17 | -2.14 | 0.74 | active |
| Adamtsl4 (ADAMTS-like 4) | 1 | no change with or without drug | -1.46 | -0.84 | -0.9 | 0.81 | inactive |
| Spata2l (spermatogenesis associated 2-like) | 1 | no change with or without drug | 0.56 | 0 | 0.67 | 0.99 | inactive |
| Or2a7 (olfactory receptor family 2 subfamily A member 7) | 1 | no change with or without drug | 1.35 | 0.51 | 1.12 | 1.06 | inactive |
| Pkp4 (plakophilin 4) | 1 | no change with or without drug | 0.67 | 0.84 | 0.22 | 1 | inactive |
| Rasa4 (RAS p21 protein activator 4) | 1 | no change with or without drug | 1.35 | 0.34 | 1.24 | 1.06 | inactive |
| Vmn1r4 (vomeronasal 1 receptor 4) | 1 | low cell count with doxorubicin only | -2.25 | -0.17 | -2.14 | 0.74 | active |
| Zc3h6 (zinc finger CCCH type containing 6) | 1 | no change with or without drug | 1.01 | -0.17 | 1.35 | 1.03 | inactive |
| Zc3h6 (zinc finger CCCH type containing 6) | 2 | no change with or without drug | 1.12 | -0.17 | 1.46 | 1.04 | inactive |
| Dsc3 (desmocollin 3) | 1 | no change with or without drug | -0.22 | 0.84 | -0.67 | 0.92 | inactive |
| Plscr4 (phospholipid scramblase 4) | 1 | no change with or without drug | -0.11 | 0.51 | -0.34 | 0.93 | inactive |
| Ntf5 (neurotrophin 5) | 1 | no change with or without drug | -0.45 | -1.69 | 0.9 | 0.9 | inactive |
| Nlgn1 (neuroligin 1) | 1 | no change with or without drug | 0.45 | 0.84 | 0 | 0.98 | inactive |
| Acsm5 (acyl-CoA synthetase medium-chain family member 5) | 1 | no change with or without drug | -0.11 | 0.51 | -0.34 | 0.93 | inactive |
| Rnls (renalase, FAD-dependent amine oxidase) | 1 | no change with or without drug | -0.9 | 0.34 | -1.01 | 0.86 | inactive |
| Rerg (RAS-like, estrogen-regulated, growth-inhibitor) | 1 | no change with or without drug | 0.79 | -0.34 | 1.24 | 1.01 | inactive |
| C030018K18RIK | 1 | no change with or without drug | 0.45 | -1.18 | 1.46 | 0.98 | inactive |
| Ces1g (carboxylesterase 1G) | 1 | no change with or without drug | -0.67 | -0.67 | -0.11 | 0.88 | inactive |
| Ccnh (cyclin H) | 1 | no change with or without drug | 0.79 | 0.84 | 0.34 | 1.01 | inactive |
| Setdb1 (SET domain, bifurcated 1) | 1 | no change with or without drug | -1.12 | -0.84 | -0.56 | 0.84 | inactive |
| Peli1 (pellino 1) | 1 | low cell count with doxorubicin only | -3.15 | -1.52 | -2.36 | 0.66 | active |
| Suclg1 (succinate-CoA ligase, GDP-forming, alpha subunit) | 1 | no change with or without drug | 0 | 0.34 | -0.11 | 0.94 | inactive |
| Arxes1 (adipocyte-related X-chromosome expressed sequence 1) | 1 | no change with or without drug | -0.11 | -0.51 | 0.34 | 0.93 | inactive |
| Ccn3 (cellular communication network factor 3) | 1 | no change with or without drug | 1.24 | 0.17 | 1.24 | 1.05 | inactive |
| Muc15 (mucin 15) | 1 | no change with or without drug | 1.35 | 0.51 | 1.12 | 1.06 | inactive |
| 4930465K10Rik (RIKEN cDNA 4930465K10 gene) | 1 | low cell count with doxorubicin only | -2.92 | 1.52 | -3.71 | 0.68 | active |
| Tafa4 (TAFA chemokine like family member 4) | 1 | no change with or without drug | -0.45 | -0.67 | 0.11 | 0.9 | inactive |
| Csrp2 (cysteine and glycine-rich protein 2) | 1 | no change with or without drug | -0.56 | 0.51 | -0.79 | 0.89 | inactive |
| Ugt2a3 (UDP glucuronosyltransferase 2 family, polypeptide A3) | 1 | no change with or without drug | -0.9 | 0 | -0.79 | 0.86 | inactive |
| Uqcrc2 (ubiquinol cytochrome c reductase core protein 2) | 1 | low cell count without drug only | -1.24 | -3.04 | 1.12 | 0.83 | inactive |
| Ppcs (phosphopantothenoylcysteine synthetase) | 1 | no change with or without drug | 0 | 1.52 | -0.9 | 0.94 | inactive |
| Mrgpra1 (MAS-related GPR, member A1) | 1 | no change with or without drug | 0 | 0.51 | -0.22 | 0.94 | inactive |
